Measurements reported in publication doi:10.1101/330266.
No constants are given. Whether binding was seen depends on the method and setting.

T1: R2R3-WT peptide fragment (human)
T1 chain: DNIKHVPGGGSVQIVYK


Assays:
[1] = target: T1, R2R3-WT peptide fragment (human); assay: thioflavin T; conditions: remark: other sources report otherwise
[2] = target: 295DNIKHV300 peptide (upstream N-terminal sequence) (human); assay: thioflavin T

Binder | binding [1] | binding [2]
DNIKHVPGGGSVQIVYK (here or on the partner: N-terminal acetylation; C-terminal amidation; N-terminal acetylation; C-terminal amidation) [R2R3-WT peptide fragment] | no binding (tested: 200 µM) | 
DNIKHV (N-terminal acetylation; C-terminal amidation) [295DNIKHV300 peptide (upstream N-terminal sequence)] |  | no binding
